Data as given in PubChem BioAssay AID743121 (NCATS, 2013)
The deposit covers about 26,000 reagents; this is an unselected part. 167 of them (0.63%) were called active. 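Calls are per gene from RSA p-values that are not deposited; an individual active-marked siRNA can sensitise only weakly.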 A number with no mark means an inactive call. Reagents against one gene are numbered here.

Aim: 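Genes whose silencing strengthens cell killing by camptothecin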 (primary screen)
Cells: MDA-MB-231 cells, a human breast cancer line
Knock-down reagent: single siRNA against human genes, 20 nM siRNA (0.8 pmol per well)
Duration: 120 h (drug added 48 h after transfection, read 72 h later)
Conditions: camptothecin 20 nM (about EC30) for 72 h; vehicle 0.1% DMSO in parallel plates
Measurement: 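Cell viability by ATP luminescence (CellTiter-Glo) as % of non-targeting siRNA wells, and the log2 ratio of viability without drug over viability with camptothecin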
Scale: log2 vehicle/camptothecin viability: higher = stronger sensitisation to camptothecin; viability with camptothecin and viability without drug: higher = more viable cells
Active means: 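Active genes have an RSA gene-level p-value below 0.001, computed from the ratios of their separate siRNAs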

| gene symbol | reagent no. | log2 vehicle/camptothecin viability | viability with camptothecin (% of control) | viability without drug (% of control) |
| --- | --- | --- | --- | --- |
| TTPA | 1 | -0.36 | 64.9 | 50.5 |
| TTPA | 2 | -0.105 | 102 | 95.2 |
| TTPA | 3 | -0.581 | 75.3 | 50.4 |
| SCN1A | 1 | -0.457 | 28.1 | 20.5 |
| SCN1A | 2 | -0.348 | 84.4 | 66.3 |
| SCN1A | 3 | 0.114 | 73.7 | 79.8 |
| MELTF | 1 | -0.0828 | 74.7 | 70.5 |
| MELTF | 2 | -0.347 | 99.7 | 78.4 |
| MELTF | 3 | -0.487 | 58.1 | 41.4 |
| MELTF | 4 | -0.26 | 111 | 93.1 |
| MELTF | 5 | -0.159 | 65.7 | 58.8 |
| MELTF | 6 | -0.0283 | 88.5 | 86.8 |
| MELTF | 7 | -0.332 | 65.4 | 51.9 |
| MELTF | 8 | -0.369 | 77.1 | 59.7 |
| SPHKAP | 1 | -0.114 | 104 | 96.2 |
| SPHKAP | 2 | -0.267 | 114 | 94.8 |
| SPHKAP | 3 | -0.142 | 77.2 | 70 |
| SPHKAP | 4 | 1.11 | 32.3 | 69.9 |
| TWF2 | 1 | -0.0938 | 81.8 | 76.6 |
| TWF2 | 2 | -0.599 | 47.1 | 31.1 |
| TWF2 | 3 | -1 | 46.8 | 23.4 |
| TWF2 | 4 | 0.131 | 38.1 | 41.7 |
| APCS | 1 | -0.183 | 126 | 111 |
| APCS | 2 | -0.336 | 72.9 | 57.8 |
| APCS | 3 | -0.421 | 63.4 | 47.3 |
| IL2RB | 1 | -0.199 | 73.8 | 64.2 |
| IL2RB | 2 | 0.516 | 35.3 | 50.5 |
| IL2RB | 3 | -0.237 | 100 | 84.9 |
| SIVA1 | 1 | 0.0422 | 72.5 | 74.6 |
| SIVA1 | 2 | 0.468 | 68.8 | 95.1 |
| SIVA1 | 3 | -0.718 | 43.8 | 26.6 |
| SIVA1 | 4 | 0.385 | 42.3 | 55.2 |
| SIVA1 | 5 | -0.527 | 76 | 52.7 |
| SIVA1 | 6 | -0.374 | 84.6 | 65.3 |
| PSMC4 | 1 | -0.15 | 13.1 | 11.8 |
| PSMC4 | 2 | -0.742 | 1.23 | 0.737 |
| PSMC4 | 3 | 0.0931 | 6.03 | 6.43 |
| PPP1R12B | 1 | -0.569 | 64.1 | 43.2 |
| PPP1R12B | 2 | -0.467 | 75.8 | 54.8 |
| PPP1R12B | 3 | -0.197 | 109 | 95.4 |
| PPP1R12B | 4 | 0.514 | 28.6 | 40.8 |
| PRB4 | 1 | -0.684 | 94.2 | 58.7 |
| PRB4 | 2 | -0.0338 | 72.2 | 70.6 |
| PRB4 | 3 | -0.276 | 95.7 | 79 |
| RAB11A | 1 | -0.206 | 45.3 | 39.3 |
| RAB11A | 2 | 0.235 | 87.5 | 103 |
| RAB11A | 3 | -0.18 | 90.3 | 79.7 |
| RAB11A | 4 | -0.0889 | 96.5 | 90.7 |
| CYP2A6 | 1 | 0.216 | 49.7 | 57.7 |
| CYP2A6 | 2 | -0.476 | 77.8 | 56 |
| CYP2A6 | 3 | -0.0225 | 83.3 | 82 |
| CYP2A6 | 4 | -0.204 | 67.1 | 58.3 |
| MBD4 | 1 | -0.165 | 110 | 98.1 |
| MBD4 | 2 | 0.716 | 40.5 | 66.4 |
| MBD4 | 3 | 0.409 | 69.9 | 92.9 |
| FBXL19 | 1 | -0.0669 | 106 | 102 |
| FBXL19 | 2 | -0.307 | 108 | 87.5 |
| FBXL19 | 3 | -0.192 | 95.8 | 83.9 |
| INSIG1 | 1 | -0.228 | 86.7 | 74 |
| INSIG1 | 2 | -0.487 | 83.1 | 59.3 |
| INSIG1 | 3 | 0.854 | 37.9 | 68.6 |
| INSIG1 | 4 | -0.122 | 117 | 107 |
| ADAMTS1 | 1 | -0.17 | 109 | 96.5 |
| ADAMTS1 | 2 | -0.276 | 91.8 | 75.8 |
| ADAMTS1 | 3 | -0.46 | 64.4 | 46.8 |
| ADAMTS1 | 4 | -0.468 | 80.4 | 58.1 |
| PLA2G2E | 1 | 0.378 | 30.1 | 39.1 |
| PLA2G2E | 2 | -0.0519 | 113 | 109 |
| PLA2G2E | 3 | -0.276 | 102 | 84.4 |
| PLA2G2E | 4 | 0.461 | 70 | 96.3 |

Laid out differently: results already given
MBD4 #1 — log2 vehicle/camptothecin viability = -0.165; viability with camptothecin (% of control) = 110; viability without drug (% of control) = 98.1
MBD4 #2 — log2 vehicle/camptothecin viability = 0.716; viability with camptothecin (% of control) = 40.5; viability without drug (% of control) = 66.4
MBD4 #3 — log2 vehicle/camptothecin viability = 0.409; viability with camptothecin (% of control) = 69.9; viability without drug (% of control) = 92.9
FBXL19 #1 — log2 vehicle/camptothecin viability = -0.0669; viability with camptothecin (% of control) = 106; viability without drug (% of control) = 102
FBXL19 #2 — log2 vehicle/camptothecin viability = -0.307; viability with camptothecin (% of control) = 108; viability without drug (% of control) = 87.5
FBXL19 #3 — log2 vehicle/camptothecin viability = -0.192; viability with camptothecin (% of control) = 95.8; viability without drug (% of control) = 83.9
INSIG1 #1 — log2 vehicle/camptothecin viability = -0.228; viability with camptothecin (% of control) = 86.7; viability without drug (% of control) = 74
INSIG1 #2 — log2 vehicle/camptothecin viability = -0.487; viability with camptothecin (% of control) = 83.1; viability without drug (% of control) = 59.3
INSIG1 #3 — log2 vehicle/camptothecin viability = 0.854; viability with camptothecin (% of control) = 37.9; viability without drug (% of control) = 68.6
INSIG1 #4 — log2 vehicle/camptothecin viability = -0.122; viability with camptothecin (% of control) = 117; viability without drug (% of control) = 107
ADAMTS1 #1 — log2 vehicle/camptothecin viability = -0.17; viability with camptothecin (% of control) = 109; viability without drug (% of control) = 96.5
